{"source": "PubChem BioAssay AID1224830 (NIAID, 2016)", "aim": "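Genes whose knock-down alters the TNF-alpha reporter response to LPS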 (primary screen)", "system": "human THP-1 monocytic leukaemia cells, TNF dual-luciferase reporter clone, PMA-differentiated to macrophage-like cells", "reagent": "siRNA pool against human genes, 50 nM", "time to read-out": "LPS for 4 h, given about 3 days after siRNA transfection", "challenge": "bacterial LPS (TLR4 ligand), 10 ng/ml", "measurement": "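Ratio of firefly to renilla light, scaled to the plate median and expressed as a robust z-score per replicate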", "reading the numbers": "TNF reporter robust z-score: higher = stronger TNF reporter response to LPS", "hit rule": "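a well is active when its z-score exceeds 2.8 or falls below -1.5; control wells carry no call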", "note": "Shown is one part, drawn at random, of about 18,000 deposited reagents. About 2,900 of them (16%) count as active. 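Calls are made per well; low scores hint the gene aids the LPS response, high scores that it dampens it.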 Repeated entries: four replicate wells of each siRNA pool."}
The first 6 records, to show the layout:
{"target gene": "RYR1", "TNF reporter robust z-score": -1.11, "Call": "inactive"}
{"target gene": "RYR1", "TNF reporter robust z-score": 0.01, "Call": "inactive"}
{"target gene": "RYR1", "TNF reporter robust z-score": -0.04, "Call": "inactive"}
{"target gene": "RYR1", "TNF reporter robust z-score": 1.72, "Call": "inactive"}
{"target gene": "SMIM15", "TNF reporter robust z-score": 0.04, "Call": "inactive"}
{"target gene": "SMIM15", "TNF reporter robust z-score": 0.66, "Call": "inactive"}

The listing, from the start:
{"target gene": "RYR1", "TNF reporter robust z-score": -1.11, "Call": "inactive"}
{"target gene": "RYR1", "TNF reporter robust z-score": 0.01, "Call": "inactive"}
{"target gene": "RYR1", "TNF reporter robust z-score": -0.04, "Call": "inactive"}
{"target gene": "RYR1", "TNF reporter robust z-score": 1.72, "Call": "inactive"}
{"target gene": "SMIM15", "TNF reporter robust z-score": 0.04, "Call": "inactive"}
{"target gene": "SMIM15", "TNF reporter robust z-score": 0.66, "Call": "inactive"}
{"target gene": "SMIM15", "TNF reporter robust z-score": 0.22, "Call": "inactive"}
{"target gene": "SMIM15", "TNF reporter robust z-score": 0.09, "Call": "inactive"}
{"target gene": "CPLX2", "TNF reporter robust z-score": 0.6, "Call": "inactive"}
{"target gene": "CPLX2", "TNF reporter robust z-score": 1.17, "Call": "inactive"}
{"target gene": "CPLX2", "TNF reporter robust z-score": -0.23, "Call": "inactive"}
{"target gene": "CPLX2", "TNF reporter robust z-score": 0.77, "Call": "inactive"}
{"target gene": "ZFR", "TNF reporter robust z-score": -0.52, "Call": "inactive"}
{"target gene": "ZFR", "TNF reporter robust z-score": 0.64, "Call": "inactive"}
{"target gene": "ZFR", "TNF reporter robust z-score": 1.47, "Call": "inactive"}
{"target gene": "ZFR", "TNF reporter robust z-score": 2.06, "Call": "inactive"}
{"target gene": "RIOX2", "TNF reporter robust z-score": -0.44, "Call": "inactive"}
{"target gene": "RIOX2", "TNF reporter robust z-score": 0.69, "Call": "inactive"}
{"target gene": "RIOX2", "TNF reporter robust z-score": -0.26, "Call": "inactive"}
{"target gene": "RIOX2", "TNF reporter robust z-score": -0.8, "Call": "inactive"}
{"target gene": "ZFAND6", "TNF reporter robust z-score": 0.03, "Call": "inactive"}
{"target gene": "ZFAND6", "TNF reporter robust z-score": -0.04, "Call": "inactive"}
{"target gene": "ZFAND6", "TNF reporter robust z-score": -0.6, "Call": "inactive"}
{"target gene": "ZFAND6", "TNF reporter robust z-score": 1.39, "Call": "inactive"}
{"target gene": "CNTRL", "TNF reporter robust z-score": -1, "Call": "inactive"}
{"target gene": "CNTRL", "TNF reporter robust z-score": -0.51, "Call": "inactive"}
{"target gene": "CNTRL", "TNF reporter robust z-score": -0.64, "Call": "inactive"}
{"target gene": "CNTRL", "TNF reporter robust z-score": -0.94, "Call": "inactive"}
{"target gene": "ANLN", "TNF reporter robust z-score": -1.66, "Call": "active"}
{"target gene": "ANLN", "TNF reporter robust z-score": -0.19, "Call": "inactive"}
{"target gene": "ANLN", "TNF reporter robust z-score": -0.69, "Call": "inactive"}
{"target gene": "ANLN", "TNF reporter robust z-score": -0.39, "Call": "inactive"}
{"target gene": "CCL19", "TNF reporter robust z-score": 0.39, "Call": "inactive"}
{"target gene": "CCL19", "TNF reporter robust z-score": 0.33, "Call": "inactive"}
{"target gene": "CCL19", "TNF reporter robust z-score": 2.28, "Call": "inactive"}
{"target gene": "CCL19", "TNF reporter robust z-score": 1.63, "Call": "inactive"}
{"target gene": "TFAM", "TNF reporter robust z-score": 0.23, "Call": "inactive"}
{"target gene": "TFAM", "TNF reporter robust z-score": 2.05, "Call": "inactive"}
{"target gene": "TFAM", "TNF reporter robust z-score": 1.23, "Call": "inactive"}
{"target gene": "TFAM", "TNF reporter robust z-score": 1.15, "Call": "inactive"}
{"target gene": "SLC9C2", "TNF reporter robust z-score": -0.12, "Call": "inactive"}
{"target gene": "SLC9C2", "TNF reporter robust z-score": 1.47, "Call": "inactive"}
{"target gene": "SLC9C2", "TNF reporter robust z-score": 1.13, "Call": "inactive"}
{"target gene": "SLC9C2", "TNF reporter robust z-score": 3, "Call": "active"}
{"target gene": "AGR3", "TNF reporter robust z-score": -0.8, "Call": "inactive"}
{"target gene": "AGR3", "TNF reporter robust z-score": -0.41, "Call": "inactive"}
{"target gene": "AGR3", "TNF reporter robust z-score": -0.01, "Call": "inactive"}
{"target gene": "AGR3", "TNF reporter robust z-score": -0.26, "Call": "inactive"}
